Source: PubChem BioAssay AID1224830 (NIAID, 2016)

- Assay: 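Host factors that control LPS-induced TNF expression in human macrophages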 (primary screen)
- Cells: human THP-1 monocytic leukaemia cells, TNF dual-luciferase reporter clone, PMA-differentiated to macrophage-like cells
- Knock-down reagent: siRNA pool against human genes, 50 nM
- Duration: LPS for 4 h, given about 3 days after siRNA transfection
- Challenge: bacterial LPS (TLR4 ligand), 10 ng/ml
- Measured: 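TNF firefly reporter luminescence divided by renilla, normalised to the plate median, then turned into a robust z-score for each replicate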
- Reading the numbers: TNF reporter robust z-score: higher = stronger TNF reporter response to LPS
- Active means: 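Each well counts as active if its z-score is over 2.8 or under -1.5; controls are left without a call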
Here is one part, drawn at random, of about 18,000 deposited reagents. About 2,900 of all reagents (16%) count as active. 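Calls are made per well; low scores hint the gene aids the LPS response, high scores that it dampens it.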 A number with no mark means an inactive call. Repeated entries: four replicate wells of each siRNA pool. No sequences are given here.

| gene symbol | TNF reporter robust z-score |
| --- | --- |
| PCDHGA3 (protocadherin gamma subfamily A, 3) | 0.15 |
| PCDHGA3 (protocadherin gamma subfamily A, 3) | 1.41 |
| PCDHGA3 (protocadherin gamma subfamily A, 3) | 0.19 |
| PCDHGA3 (protocadherin gamma subfamily A, 3) | 1.82 |
| PLSCR2 (phospholipid scramblase 2) | 5.78 (active) |
| PLSCR2 (phospholipid scramblase 2) | 4.93 (active) |
| PLSCR2 (phospholipid scramblase 2) | 1.61 |
| PLSCR2 (phospholipid scramblase 2) | 1.72 |
| FBXO33 (F-box protein 33) | 0.01 |
| FBXO33 (F-box protein 33) | -0.12 |
| FBXO33 (F-box protein 33) | -1.35 |
| FBXO33 (F-box protein 33) | -0.39 |
| B3GNT2 | -0.62 |
| B3GNT2 | 1.01 |
| B3GNT2 | -0.18 |
| B3GNT2 | -0.34 |
| CNTROB | -0.41 |
| CNTROB | 1.03 |
| CNTROB | 0.51 |
| CNTROB | 1.57 |
| SHQ1 (SHQ1, H/ACA ribonucleoprotein assembly factor) | -0.35 |
| SHQ1 (SHQ1, H/ACA ribonucleoprotein assembly factor) | 2.3 |
| SHQ1 (SHQ1, H/ACA ribonucleoprotein assembly factor) | -0.14 |
| SHQ1 (SHQ1, H/ACA ribonucleoprotein assembly factor) | 0.99 |
| PI3 (peptidase inhibitor 3) | -0.91 |
| PI3 (peptidase inhibitor 3) | -0.57 |
| PI3 (peptidase inhibitor 3) | -0.67 |
| PI3 (peptidase inhibitor 3) | -0.19 |
| NASP (nuclear autoantigenic sperm protein) | -0.44 |
| NASP (nuclear autoantigenic sperm protein) | 0.88 |
| NASP (nuclear autoantigenic sperm protein) | -1.67 (active) |
| NASP (nuclear autoantigenic sperm protein) | 0 |
| OR2T5 (olfactory receptor family 2 subfamily T member 5) | -0.81 |
| OR2T5 (olfactory receptor family 2 subfamily T member 5) | -1 |
| OR2T5 (olfactory receptor family 2 subfamily T member 5) | -1.18 |
| OR2T5 (olfactory receptor family 2 subfamily T member 5) | 0.27 |
| C1orf116 (chromosome 1 open reading frame 116) | 0.47 |
| C1orf116 (chromosome 1 open reading frame 116) | 0.37 |
| C1orf116 (chromosome 1 open reading frame 116) | -0.1 |
| C1orf116 (chromosome 1 open reading frame 116) | 0.11 |
| KLK14 (kallikrein related peptidase 14) | 1.97 |
| KLK14 (kallikrein related peptidase 14) | 1.22 |
| KLK14 (kallikrein related peptidase 14) | 3.13 (active) |
| KLK14 (kallikrein related peptidase 14) | 3.78 (active) |
| TNS3 (tensin 3) | 2.02 |
| TNS3 (tensin 3) | 1.92 |
| TNS3 (tensin 3) | 1.94 |
| TNS3 (tensin 3) | -0.56 |
| LINC03124 (long independently transcribed non-coding RNA 3124) | 0.1 |
| LINC03124 (long independently transcribed non-coding RNA 3124) | -0.41 |
| LINC03124 (long independently transcribed non-coding RNA 3124) | -0.57 |
| LINC03124 (long independently transcribed non-coding RNA 3124) | 0.02 |
| TTC36 (tetratricopeptide repeat domain 36) | 0.87 |
| TTC36 (tetratricopeptide repeat domain 36) | -0.67 |
| TTC36 (tetratricopeptide repeat domain 36) | 1.77 |
| TTC36 (tetratricopeptide repeat domain 36) | 1.34 |
| AHR (aryl hydrocarbon receptor) | 0.32 |
| AHR (aryl hydrocarbon receptor) | -0.36 |
| AHR (aryl hydrocarbon receptor) | -0.87 |
| AHR (aryl hydrocarbon receptor) | -0.21 |
| FAM221A (family with sequence similarity 221 member A) | -0.86 |
| FAM221A (family with sequence similarity 221 member A) | -0.7 |
| FAM221A (family with sequence similarity 221 member A) | -0.21 |
| FAM221A (family with sequence similarity 221 member A) | -0.74 |
| ADGRF5 (adhesion G protein-coupled receptor F5) | -0.06 |
| ADGRF5 (adhesion G protein-coupled receptor F5) | -0.12 |
| ADGRF5 (adhesion G protein-coupled receptor F5) | -0.21 |
| ADGRF5 (adhesion G protein-coupled receptor F5) | 0.63 |
| SELENOI (selenoprotein I) | 0 |
| SELENOI (selenoprotein I) | 0.43 |
| SELENOI (selenoprotein I) | 0.44 |
| SELENOI (selenoprotein I) | 0.85 |
| OSGIN1 (oxidative stress induced growth inhibitor 1) | 0.42 |
| OSGIN1 (oxidative stress induced growth inhibitor 1) | 0.23 |
| OSGIN1 (oxidative stress induced growth inhibitor 1) | -0.89 |
| CTNND2 (catenin delta 2) | 0.5 |
| CTNND2 (catenin delta 2) | 0.7 |
| CTNND2 (catenin delta 2) | 0.25 |
| CTNND2 (catenin delta 2) | 0.6 |
| MSL3 (MSL complex subunit 3) | -2.05 (active) |
| MSL3 (MSL complex subunit 3) | -1.73 (active) |
| MSL3 (MSL complex subunit 3) | -1.47 |
| MSL3 (MSL complex subunit 3) | -1.67 (active) |
| GARRE1 (granule associated Rac and RHOG effector 1) | 2.36 |
| GARRE1 (granule associated Rac and RHOG effector 1) | 3.92 (active) |
| GARRE1 (granule associated Rac and RHOG effector 1) | -0.75 |
| GARRE1 (granule associated Rac and RHOG effector 1) | -0.26 |
| CMTM8 (CKLF like MARVEL transmembrane domain containing 8) | -0.15 |
| CMTM8 (CKLF like MARVEL transmembrane domain containing 8) | 0.14 |
| CMTM8 (CKLF like MARVEL transmembrane domain containing 8) | -0.04 |
| CMTM8 (CKLF like MARVEL transmembrane domain containing 8) | -0.51 |
| CNOT3 (CCR4-NOT transcription complex subunit 3) | -0.06 |
| CNOT3 (CCR4-NOT transcription complex subunit 3) | -0.09 |
| CNOT3 (CCR4-NOT transcription complex subunit 3) | -0.89 |
| CNOT3 (CCR4-NOT transcription complex subunit 3) | 0.28 |
| ASIP (agouti signaling protein) | -0.53 |
| ASIP (agouti signaling protein) | -1.46 |
| ASIP (agouti signaling protein) | -0.77 |
| ASIP (agouti signaling protein) | -0.52 |
| GBF1 | -0.54 |
| GBF1 | -1.42 |
| GBF1 | -0.87 |
| GBF1 | -0.58 |
| HOXC5 (homeobox C5) | -0.35 |
| HOXC5 (homeobox C5) | 1.81 |
| HOXC5 (homeobox C5) | -0.3 |
| HOXC5 (homeobox C5) | 0.43 |
| LENG9 (leukocyte receptor cluster member 9) | 2.64 |
| LENG9 (leukocyte receptor cluster member 9) | 3.5 (active) |
| LENG9 (leukocyte receptor cluster member 9) | 4.07 (active) |
| LENG9 (leukocyte receptor cluster member 9) | 1.1 |

Sorted by “TNF reporter robust z-score” (ascending): some entries from above.
| gene symbol | TNF reporter robust z-score |
| --- | --- |
| CMTM8 (CKLF like MARVEL transmembrane domain containing 8) | -0.51 |
| GARRE1 (granule associated Rac and RHOG effector 1) | -0.26 |
| CMTM8 (CKLF like MARVEL transmembrane domain containing 8) | -0.15 |
| CMTM8 (CKLF like MARVEL transmembrane domain containing 8) | -0.04 |
| CMTM8 (CKLF like MARVEL transmembrane domain containing 8) | 0.14 |
